Experimental data taken from US20260209298A1.
No constants are given. Whether binding was seen depends on the method and setting. In cells and extracts the contact can be indirect. Some entries that bind do so weakly or less than the wild type.

Chains of the proteins cited; added tags and fusions are not shown. Lines headed by an entry give the natural chain unless they say otherwise; changes in a name come on top. Residues count along the entry.
UniProt P53350, residues 2-603: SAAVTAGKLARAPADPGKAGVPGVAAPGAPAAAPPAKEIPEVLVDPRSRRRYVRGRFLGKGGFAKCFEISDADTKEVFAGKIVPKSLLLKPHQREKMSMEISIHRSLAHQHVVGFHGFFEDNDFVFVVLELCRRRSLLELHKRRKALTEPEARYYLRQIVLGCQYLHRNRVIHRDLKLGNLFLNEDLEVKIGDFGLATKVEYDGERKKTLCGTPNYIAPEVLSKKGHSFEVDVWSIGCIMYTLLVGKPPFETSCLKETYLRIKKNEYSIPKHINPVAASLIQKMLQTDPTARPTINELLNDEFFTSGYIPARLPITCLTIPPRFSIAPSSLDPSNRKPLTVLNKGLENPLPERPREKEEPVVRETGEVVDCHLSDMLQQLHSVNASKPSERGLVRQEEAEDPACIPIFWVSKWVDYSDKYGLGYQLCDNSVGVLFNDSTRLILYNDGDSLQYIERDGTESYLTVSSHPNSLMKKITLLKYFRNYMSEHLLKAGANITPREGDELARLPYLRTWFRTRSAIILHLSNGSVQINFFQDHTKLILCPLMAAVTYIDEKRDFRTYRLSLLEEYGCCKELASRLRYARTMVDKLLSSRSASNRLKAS
UniProt P24593: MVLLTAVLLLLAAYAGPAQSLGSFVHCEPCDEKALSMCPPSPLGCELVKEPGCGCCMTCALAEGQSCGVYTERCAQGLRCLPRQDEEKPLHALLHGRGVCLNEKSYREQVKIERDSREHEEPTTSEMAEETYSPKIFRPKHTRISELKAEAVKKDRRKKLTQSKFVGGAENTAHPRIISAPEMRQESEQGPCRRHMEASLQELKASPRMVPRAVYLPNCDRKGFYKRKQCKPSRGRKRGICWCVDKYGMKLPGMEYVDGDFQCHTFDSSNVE

What was measured:
[1] = biological target: PLK1 (Polo-like kinase 1), endogenous protein in A549 and H460 cell lysates (UniProt P53350); assay: co-immunoprecipitation with PLK1 antibody and agarose beads from A549 and H460 lysates, immunoblot
[2] = biological target: PLK1 (Polo-like kinase 1), endogenous protein in A549 and H460 cell lysates (UniProt P53350); assay: co-immunoprecipitation with PLK1 antibody, A549 cells treated with 5 ng/ml TGF-β
[3] = biological target: PLK1 (Polo-like kinase 1), endogenous protein in A549 and H460 cell lysates (UniProt P53350); assay: co-immunoprecipitation after TGF-β treatment (summary of Example 4)
[4] = biological target: PLK1 (Polo-like kinase 1), endogenous protein in A549 and H460 cell lysates (UniProt P53350); assay: co-immunoprecipitation with PLK1 antibody, H460 cells treated with 2.5 ng/ml TGF-β

Measured: binding

IGFBP5 (insulin-like growth factor binding protein 5), wild type, endogenous protein in A549 and H460 cell lysates (from UniProt P24593 21-272)
binds: all assays above
